These are yes or no findings as the source states them, for the method shown. Some entries that bind do so weakly or less than the wild type. Where a sequence is shown, tags or fusion partners need not be part of it.
Key:
[1] = target: β4 integrin, immunopurified (from MDA-MB-231L cells) (human) (UniProt P16144); assay: pull-down, Western blot with α-β4 pAbH101
[2] = target: β4 integrin on MDA-MB-231 human breast cancer cells (human) (UniProt P16144); assay: FACS on MDA-MB-231 cells, α-GST antibody detection
[3] = target: β4 integrin, immunopurified (from MDA-MB-231L cells) (human) (UniProt P16144); assay: ELISA, GST-HA … 100 ng/ml on dishes coated at 10 µg/ml, anti-GST detection
[4] = target: β4 integrin on MDA-MB-231 human breast cancer cells (human) (UniProt P16144); assay: FACS on MDA-MB-231 cells, 100 ng/ml
[5] = target: β4 integrin, immunopurified (from MDA-MB-231L cells) (human) (UniProt P16144); assay: pull-down, Western blot with α-GST pAb(B-14)
[6] = target: β4 integrin, immunopurified (from MDA-MB-231L cells) (human) (UniProt P16144); assay: ELISA on coated integrin
[7] = target: β4 integrin, immunopurified (from MDA-MB-231L cells) (human) (UniProt P16144); assay: ELISA with different divalent cations
[8] = target: β4 integrin, immunopurified (from MDA-MB-231L cells) (human) (UniProt P16144); assay: reverse pull-down, Western blot
[9] = target: β4 integrin, immunopurified (from MDA-MB-231L cells) (human) (UniProt P16144); assay: ELISA, phosphate-buffered saline + 1 mm MnCl2
[10] = target: β4 integrin, immunopurified (from MDA-MB-231L cells) (human) (UniProt P16144); assay: ELISA, immunopurified β4 integrin coated at 10 µg/ml, increasing concentrations of the polypeptide
[11] = target: β4 integrin, immunopurified (from MDA-MB-231L cells) (human) (UniProt P16144); assay: pull-down, Western blot
[12] = target: β4 integrin, immunopurified (from MDA-MB-231L cells) (human) (UniProt P16144); assay: ELISA and pull-down assays, data not shown

Chains of the proteins cited; added tags and fusions are not shown. Residues count along the entry.
UniProt P16144, residues 28-1822: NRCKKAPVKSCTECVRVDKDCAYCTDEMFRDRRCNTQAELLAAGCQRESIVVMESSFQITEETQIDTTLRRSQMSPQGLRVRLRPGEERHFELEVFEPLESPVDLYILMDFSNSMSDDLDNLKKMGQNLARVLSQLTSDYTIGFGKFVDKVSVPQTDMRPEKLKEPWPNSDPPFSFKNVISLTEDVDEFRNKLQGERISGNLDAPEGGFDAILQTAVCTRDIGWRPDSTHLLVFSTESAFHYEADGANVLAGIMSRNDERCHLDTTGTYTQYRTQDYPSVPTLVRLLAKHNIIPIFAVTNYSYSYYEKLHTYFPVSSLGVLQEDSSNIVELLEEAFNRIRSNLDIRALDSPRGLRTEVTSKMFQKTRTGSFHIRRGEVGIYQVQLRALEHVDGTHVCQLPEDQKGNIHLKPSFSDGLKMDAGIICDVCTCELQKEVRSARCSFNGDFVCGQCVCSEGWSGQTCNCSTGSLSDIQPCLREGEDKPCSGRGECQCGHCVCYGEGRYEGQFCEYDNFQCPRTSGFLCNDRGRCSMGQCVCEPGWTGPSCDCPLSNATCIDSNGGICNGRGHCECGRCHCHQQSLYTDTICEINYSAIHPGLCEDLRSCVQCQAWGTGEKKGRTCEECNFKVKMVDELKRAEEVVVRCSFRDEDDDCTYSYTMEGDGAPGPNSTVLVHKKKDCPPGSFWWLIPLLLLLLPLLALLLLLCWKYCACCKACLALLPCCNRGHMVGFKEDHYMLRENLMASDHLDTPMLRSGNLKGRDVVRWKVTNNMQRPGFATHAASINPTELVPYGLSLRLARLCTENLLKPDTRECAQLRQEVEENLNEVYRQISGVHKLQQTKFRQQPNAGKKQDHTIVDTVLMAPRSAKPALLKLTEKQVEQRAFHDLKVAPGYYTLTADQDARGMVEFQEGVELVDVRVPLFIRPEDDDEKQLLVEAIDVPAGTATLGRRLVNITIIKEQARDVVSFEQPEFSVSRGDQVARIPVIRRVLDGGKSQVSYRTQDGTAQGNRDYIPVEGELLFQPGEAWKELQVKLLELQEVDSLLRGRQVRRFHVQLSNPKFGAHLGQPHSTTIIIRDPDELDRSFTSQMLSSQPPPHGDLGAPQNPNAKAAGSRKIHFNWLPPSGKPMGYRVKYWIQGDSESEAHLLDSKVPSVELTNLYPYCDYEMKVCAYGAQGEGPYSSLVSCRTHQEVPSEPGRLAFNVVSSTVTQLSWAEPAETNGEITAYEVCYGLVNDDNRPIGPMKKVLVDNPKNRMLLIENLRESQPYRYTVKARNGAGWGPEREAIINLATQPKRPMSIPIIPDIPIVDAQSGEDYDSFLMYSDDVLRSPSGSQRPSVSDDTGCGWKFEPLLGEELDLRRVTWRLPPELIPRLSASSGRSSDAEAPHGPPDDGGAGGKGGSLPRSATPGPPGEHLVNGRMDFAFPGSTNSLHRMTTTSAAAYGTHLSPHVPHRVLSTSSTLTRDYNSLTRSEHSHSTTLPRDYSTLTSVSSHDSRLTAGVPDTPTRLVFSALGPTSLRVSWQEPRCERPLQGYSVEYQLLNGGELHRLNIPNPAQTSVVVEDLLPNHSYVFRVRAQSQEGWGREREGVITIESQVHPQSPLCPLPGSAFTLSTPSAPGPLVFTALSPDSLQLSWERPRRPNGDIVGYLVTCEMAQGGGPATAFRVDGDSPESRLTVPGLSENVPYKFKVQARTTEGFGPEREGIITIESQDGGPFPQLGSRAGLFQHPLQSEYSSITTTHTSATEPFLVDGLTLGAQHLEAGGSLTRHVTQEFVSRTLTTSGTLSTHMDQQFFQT

Measured: binding

B1: GST-β4BMhCLCA2(90)-HA (GST fusion of the β4-binding motif … of the 90-kDa hCLCA2) (peptide, not shown: a dimerising Fc or GST; small tags and cut ends)
chain: AFSRISSGTG
binds: [1] | [2] | [3] | [4] | [5] | [6] | [7] | [8] | [9] | [10] | [11]

B2: GST-β4BMhCLCA2(35)-HA (GST fusion of the β4-binding motif … of the 35-kDa hCLCA2) (peptide, not shown: a dimerising Fc or GST; small tags and cut ends)
chain: GFSRVSSGGS
binds: [12]

— patent US20040265859A1
